Measurements from paper doi:10.1101/2025.10.08.681182.
These are yes or no findings as the source states them, for the method shown.

Sequences of proteins named here, by UniProt entry; tags and fusion partners are left off. A change or cut given only in a name is not applied to a line headed by its entry.
UniProt P25342: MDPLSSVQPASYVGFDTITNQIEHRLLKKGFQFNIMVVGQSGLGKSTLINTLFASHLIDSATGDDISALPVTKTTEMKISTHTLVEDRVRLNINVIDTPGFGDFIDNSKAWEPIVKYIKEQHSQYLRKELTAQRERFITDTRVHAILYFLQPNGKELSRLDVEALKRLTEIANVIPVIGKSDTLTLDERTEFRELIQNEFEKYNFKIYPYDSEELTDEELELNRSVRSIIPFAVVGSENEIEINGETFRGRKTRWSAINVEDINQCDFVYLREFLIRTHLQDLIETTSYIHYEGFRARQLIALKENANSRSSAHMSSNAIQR
UniProt P32457: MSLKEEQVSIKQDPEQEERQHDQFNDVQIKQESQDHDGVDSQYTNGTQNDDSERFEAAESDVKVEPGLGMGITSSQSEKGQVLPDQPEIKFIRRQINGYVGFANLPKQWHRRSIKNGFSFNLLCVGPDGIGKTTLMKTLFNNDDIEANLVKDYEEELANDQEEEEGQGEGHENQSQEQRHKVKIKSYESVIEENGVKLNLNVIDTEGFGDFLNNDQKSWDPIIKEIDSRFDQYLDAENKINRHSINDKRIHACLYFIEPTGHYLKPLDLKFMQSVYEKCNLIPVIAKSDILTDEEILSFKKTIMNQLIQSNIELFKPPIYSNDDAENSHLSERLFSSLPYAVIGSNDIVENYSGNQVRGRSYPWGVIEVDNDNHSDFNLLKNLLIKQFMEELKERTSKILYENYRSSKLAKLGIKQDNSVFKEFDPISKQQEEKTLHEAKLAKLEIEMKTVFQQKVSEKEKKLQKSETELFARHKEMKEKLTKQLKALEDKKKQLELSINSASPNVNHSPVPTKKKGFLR
UniProt P32468: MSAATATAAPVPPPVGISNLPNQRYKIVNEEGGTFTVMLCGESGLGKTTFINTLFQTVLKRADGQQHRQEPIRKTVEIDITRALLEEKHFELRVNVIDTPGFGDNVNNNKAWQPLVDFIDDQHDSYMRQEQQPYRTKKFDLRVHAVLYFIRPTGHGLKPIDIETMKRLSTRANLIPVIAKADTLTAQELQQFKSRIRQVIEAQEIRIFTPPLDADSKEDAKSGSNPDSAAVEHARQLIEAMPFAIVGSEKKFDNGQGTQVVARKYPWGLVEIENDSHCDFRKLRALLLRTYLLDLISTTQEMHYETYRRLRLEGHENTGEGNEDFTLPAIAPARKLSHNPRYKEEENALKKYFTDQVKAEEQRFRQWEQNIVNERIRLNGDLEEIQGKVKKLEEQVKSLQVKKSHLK
UniProt P32458: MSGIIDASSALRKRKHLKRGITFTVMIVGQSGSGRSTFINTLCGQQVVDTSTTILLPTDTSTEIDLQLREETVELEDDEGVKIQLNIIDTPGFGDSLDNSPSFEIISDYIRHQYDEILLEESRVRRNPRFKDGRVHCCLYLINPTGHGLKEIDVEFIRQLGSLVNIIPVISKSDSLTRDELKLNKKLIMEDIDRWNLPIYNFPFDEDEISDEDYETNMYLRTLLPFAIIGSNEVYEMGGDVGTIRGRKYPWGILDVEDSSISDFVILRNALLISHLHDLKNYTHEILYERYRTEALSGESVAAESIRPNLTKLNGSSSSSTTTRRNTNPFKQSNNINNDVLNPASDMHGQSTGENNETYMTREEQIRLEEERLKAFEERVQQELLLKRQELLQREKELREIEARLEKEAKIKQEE

Biological target: budding yeast septin complex Cdc10-GFP-Cdc3-Cdc12-Cdc11 (budding yeast) (UniProt P25342+P32457+P32468+P32458)
Assay: fluorescence microscopy of binding to GUVs

streptavidin labeled with Atto647N (from UniProt P22629 25-183)
binding: no binding
